Source: patent US20100167390
Where cells or extracts were used, other partners may take part.

Chains of the proteins cited; added tags and fusions are not shown.
UniProt Q04206, whole entry: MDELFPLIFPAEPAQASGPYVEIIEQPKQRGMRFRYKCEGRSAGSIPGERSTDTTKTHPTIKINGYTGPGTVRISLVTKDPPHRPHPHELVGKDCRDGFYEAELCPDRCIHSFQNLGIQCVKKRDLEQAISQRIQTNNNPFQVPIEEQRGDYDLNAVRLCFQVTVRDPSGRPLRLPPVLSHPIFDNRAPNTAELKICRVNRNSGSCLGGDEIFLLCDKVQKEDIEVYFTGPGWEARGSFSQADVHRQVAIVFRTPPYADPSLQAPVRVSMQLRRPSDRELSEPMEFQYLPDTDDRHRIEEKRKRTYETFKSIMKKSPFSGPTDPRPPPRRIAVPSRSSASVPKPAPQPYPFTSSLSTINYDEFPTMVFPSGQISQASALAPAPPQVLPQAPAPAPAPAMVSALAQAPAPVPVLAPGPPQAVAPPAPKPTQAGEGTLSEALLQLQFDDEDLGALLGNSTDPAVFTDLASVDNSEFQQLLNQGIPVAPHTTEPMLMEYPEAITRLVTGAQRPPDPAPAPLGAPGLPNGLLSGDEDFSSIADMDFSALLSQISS

Biological target: NF-kB p65 (RelA) (UniProt Q04206)
Test: competition with a labelled probe
Conditions: protein in an extract

Sequence: CCCGGGATTTCCCACC (double strand) [FSODN8]
- IC50 (PS only in flanks and flank-core bonds, variant of SODN8): > 100 nM

Sequence: CCCGGGATTTCCCACC (double strand) [ODN8]
- IC50 (no phosphorothioate, variant of SODN8): > 100 nM

Sequence: CCCTGGGATTTCCCGCC (double strand) [FSODN17]
- IC50 (PS only in flanks and flank-core bonds, variant of SODN17): > 100 nM

Sequence: CCCTGGGATTTCCCGCC (double strand) [ODN17]
- IC50 (no phosphorothioate, variant of SODN17): > 100 nM

Sequence: CGCAGGGATTTCCCGCG (double strand) [ODN16]
- IC50 (no phosphorothioate, variant of SODN16): > 100 nM

Sequence: CGCGGGATTTCCCAGC (double strand) [FSODN7]
- IC50 (PS only in flanks and flank-core bonds (CsGsCsGGGATTTCCCsAsGsC), variant of SODN7): > 100 nM

Sequence: CGCGGGATTTCCCAGC (double strand) [ODN7]
- IC50 (no phosphorothioate, variant of SODN7): > 100 nM

Sequence: GGAGGGATTTCCCGGG (double strand) [FSODN9]
- IC50 (PS only in flanks and flank-core bonds, variant of SODN9): > 100 nM

Sequence: GGAGGGATTTCCCGGG (double strand) [ODN9]
- IC50 (no phosphorothioate, variant of SODN9): > 100 nM

Sequence: GGCTGGGATTTCCCGCGG (double strand) [FSODN30]
- IC50 (PS only in flanks and flank-core bonds, variant of SODN30): > 100 nM

Sequence: GGCTGGGATTTCCCGCGG (double strand) [ODN30]
- IC50 (no phosphorothioate, variant of SODN30): > 100 nM
